Experimental data reported in PubChem BioAssay AID248 (DTP/NCI, 2004).
The list is a part of this screen's results and no random one: it is rich in T/C values a quarter to a half above the control, in often repeated tests (any T/C) and in doses without a T/C. Further doses and runs are listed elsewhere. T/C: endpoint of the treated group in % of that of the vehicle group. Some doses have a count of surviving animals in place of a T/C: the source files T/C as zero there, which appears to mark a toxic dose or a test without result, not a measured value. Some doses without a T/C left all or most animals alive at the check, yet need not have been tolerated: survival well below the control is almost never listed, so the zero probably covers shortened survival too. Survivors were counted at the toxicity check, usually on the fifth day, unless a day is given; later deaths do not show. Schedule codes are those of the source, taken here to give the interval after Q, in days (D) or hours (H), and the number of doses after X. Some schedule codes hold Z or #, which are not explained here. Some entries were tested several times; the results are listed from low to high. Where survival is the endpoint, this PubChem deposit counts one and a half times the control or more as active, and values a quarter to a half above the control carry no call in these data; other NCI protocols may use other cut-offs. Some T/C values carry the count of animals alive at the toxicity check (mostly the fifth day); without a count, all were alive then.

System: L1210 leukemia ip in BDF1 mice, survival T/C
Assay: NCI In Vivo Anticancer Drug Screen. Data for tumor model L1210 Leukemia (intraperitoneal) in B6D2F1 (BDF1) mice
Conditions: T/C endpoint: mean survival time, higher T/C = longer survival
[1] = dose: 200.0 mg/kg/injection, schedule: Q01DX001 (ip), vehicle: other

With `N#CCc1[nH]cnc1C#N` the T/C (dose: 200.0 mg/kg/injection, schedule: Q04DX003 (ip), vehicle: water) was 125 % of control.

For `CCCCCCCCCCCCCCCCCCNC1=C(Cl)C(=O)C(NCCCCCCCCCCCCCCCCCC)=C(Cl)C1=O`, the survivor count (dose: 100.0 mg/kg/injection, schedule: Q01DX001 (ip), vehicle: carboxymethylcellulose (CMC)) was 2 of 4, the survivor count (dose: 200.0 mg/kg/injection, schedule: Q01DX001 (ip), vehicle: carboxymethylcellulose (CMC)) was 0 of 4 and the survivor count (dose: 400.0 mg/kg/injection, schedule: Q01DX001 (ip), vehicle: carboxymethylcellulose (CMC)) was 0 of 4.

In the case of `c1cc[c]([Pb]([c]2ccccc2)([c]2ccccc2)[n]2cnc3cncnc32)cc1`, the survivor count (dose: 20.0 mg/kg/injection, schedule: Q01DX001 (ip), vehicle: other) is reported as 3 of 6, the survivor count (dose: 40.0 mg/kg/injection, schedule: Q01DX001 (ip), vehicle: other) is reported as 1 of 6 and the survivor count (dose: 80.0 mg/kg/injection, schedule: Q01DX001 (ip), vehicle: other) is reported as 0 of 6. For the same compound, the survivor count (dose: 100.0 mg/kg/injection, schedule: Q01DX001 (ip), vehicle: other) was 0 of 6, the survivor count [1] was 1 of 6 and the survivor count (dose: 400.0 mg/kg/injection, schedule: Q01DX001 (ip), vehicle: other) was 1 of 6.

`O=C(Nc1ccccc1)OCC(OC(=O)Nc1ccccc1)C(COC(=O)Nc1ccccc1)OC(=O)Nc1ccccc1` (stereo unspecified) was tested, and the survivor count (dose: 100.0 mg/kg/injection, schedule: Q04DX002 (ip), vehicle: saline with Tween-80) was 3 of 3 and the survivor count (dose: 200.0 mg/kg/injection, schedule: Q04DX002 (ip), vehicle: saline with Tween-80) was 3 of 3.

`Nc1nc2ncc(CNc3ccc(C(=O)NC(CCC(=O)O)C(=O)O)cn3)nc2c(=O)[nH]1` (stereo unspecified) was tested, and the T/C (dose: 50.0 mg/kg/injection, schedule: Q01DX009 (ip), vehicle: saline with Tween-80) was 130 % of control, the T/C (dose: 62.5 mg/kg/injection, schedule: Q01DX009 (ip), vehicle: saline with Tween-80) was 130 % of control and the T/C (dose: 75.0 mg/kg/injection, schedule: Q01DX009 (ip), vehicle: saline with Tween-80) was 139 % of control [5 of 6 alive].

In the case of `C1=C(c2ccccc2)NN=C(c2ccccc2)C1c1ccccc1` (stereo unspecified), the survivor count (dose: 100.0 mg/kg/injection, schedule: Q01DX001 (ip), vehicle: saline with Tween-80) is reported as 6 of 6, the survivor count (dose: 200.0 mg/kg/injection, schedule: Q01DX001 (ip), vehicle: saline with Tween-80) is reported as 6 of 6 and the survivor count (dose: 400.0 mg/kg/injection, schedule: Q01DX001 (ip), vehicle: saline with Tween-80) is reported as 6 of 6.

For `Oc1cncc2ccccc12`, the survivor count (dose: 200.0 mg/kg/injection, schedule: Q04DX003 (ip), vehicle: saline) was 6 of 6.

In the case of `CC(/C=N/N=C(N(C)C)N(C)C)=N/N=C(N(C)C)N(C)C`, the survivor count (dose: 60.0 mg/kg/injection, schedule: Q01DX Z (oral), vehicle: methylcellulose (MC)) is reported as 3 of 6, the survivor count (dose: 120.0 mg/kg/injection, schedule: Q01DX Z (oral), vehicle: methylcellulose (MC)) is reported as 3 of 6 and 5 of 6 and the survivor count (dose: 240.0 mg/kg/injection, schedule: Q01DX Z (oral), vehicle: methylcellulose (MC)) is reported as 2 of 6 and 3 of 6. For the same compound, the survivor count (dose: 250.0 mg/kg/injection, schedule: Q01DX Z (ip), vehicle: methylcellulose (MC)) was 0 of 6, the survivor count (dose: 375.0 mg/kg/injection, schedule: Q01DX Z (ip), vehicle: methylcellulose (MC)) was 0 of 6 and the survivor count (dose: 480.0 mg/kg/injection, schedule: Q01DX Z (oral), vehicle: methylcellulose (MC)) was 0 of 6. For the same compound, the survivor count (dose: 500.0 mg/kg/injection, schedule: Q01DX Z (ip), vehicle: methylcellulose (MC)) was 0 of 6.

With `O=C(O)c1cc2ccc3ccccc3c2s1` the survivor count (dose: 400.0 mg/kg/injection, schedule: Q01DX001 (ip), vehicle: saline) was 4 of 6.

With `CC1CS(=O)(=O)O1` (stereo unspecified) the survivor count (dose: 400.0 mg/kg/injection, schedule: Q04DX002 (ip), vehicle: saline with Tween-80) was 1 of 3.

With `N#Cc1ccc(/C=N\NC(=O)CCCC(=O)N/N=C/c2ccc(C#N)cc2)cc1` the survivor count [1] was 4 of 4.

`COc1cc(NC(=O)Nc2cc(OC)c(OC)c(OC)c2)cc(OC)c1OC` was tested, and the survivor count (dose: 200.0 mg/kg/injection, schedule: Q04DX003 (ip), vehicle: saline with Tween-80) was 0 of 6 and the survivor count (dose: 400.0 mg/kg/injection, schedule: Q04DX003 (ip), vehicle: saline with Tween-80) was 0 of 6.

`Cn1cnc([N+](=O)[O-])c1SC#N` was tested, and the survivor count (dose: 30.0 mg/kg/injection, schedule: Q01DX001 (ip), vehicle: carboxymethylcellulose (CMC)) was 0 of 6, the survivor count (dose: 60.0 mg/kg/injection, schedule: Q01DX001 (ip), vehicle: carboxymethylcellulose (CMC)) was 0 of 6 and the survivor count (dose: 75.0 mg/kg/injection, schedule: Q01DX001 (ip), vehicle: carboxymethylcellulose (CMC)) was 0 of 6. For the same compound, the survivor count (dose: 150.0 mg/kg/injection, schedule: Q01DX001 (ip), vehicle: carboxymethylcellulose (CMC)) was 0 of 6 and the survivor count (dose: 300.0 mg/kg/injection, schedule: Q01DX001 (ip), vehicle: carboxymethylcellulose (CMC)) was 0 of 6.
